The results in this text go back to PMC12468009.

Sequences of proteins named here, by UniProt entry; tags and fusion partners are left off. Residues count along the entry.
UniProt P02769, 25-607: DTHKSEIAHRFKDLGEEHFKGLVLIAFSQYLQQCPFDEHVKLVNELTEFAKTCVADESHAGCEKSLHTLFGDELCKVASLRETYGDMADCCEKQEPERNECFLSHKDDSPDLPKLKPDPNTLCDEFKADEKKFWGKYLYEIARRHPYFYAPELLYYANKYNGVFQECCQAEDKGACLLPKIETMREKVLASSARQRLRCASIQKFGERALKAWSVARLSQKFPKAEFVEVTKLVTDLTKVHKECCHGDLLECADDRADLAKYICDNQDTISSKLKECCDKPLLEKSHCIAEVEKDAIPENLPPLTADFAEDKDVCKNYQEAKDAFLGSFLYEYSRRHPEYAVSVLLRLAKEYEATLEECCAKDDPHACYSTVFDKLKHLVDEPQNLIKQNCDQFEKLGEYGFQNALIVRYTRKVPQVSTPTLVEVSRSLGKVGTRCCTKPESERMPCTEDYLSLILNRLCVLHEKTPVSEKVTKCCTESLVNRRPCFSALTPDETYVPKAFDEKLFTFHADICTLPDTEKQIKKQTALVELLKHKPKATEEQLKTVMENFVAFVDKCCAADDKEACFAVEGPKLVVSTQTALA

Negatives hold for the conditions tested.

Data set [1] concerns the target human serum albumin (HSA) (human) (UniProt P02768). In words: dot blot. The settings on record: 100 µg HSA on nitrocellulose, 400 pmol aptamer in PBS, 37 °C, 5'-biotin, 1 h, membrane blocked with 5% BSA/0.01% Tween 20, QCM-D: β-LG in PBS pH 3.5, 37 °C, aptamer 0.5 µM in TRIS with 0.1% BSA for immobilization, commercial protein, label: biotin, single-stranded DNA.
Data set [2] has as its target bovine serum albumin (BSA) (bovine) (UniProt P02769). In words: dot blot. The following applies: 100 µg BSA on nitrocellulose, 400 pmol aptamer in PBS, 37 °C, 5'-biotin, 1 h, membrane blocked with 5% BSA/0.01% Tween 20, QCM-D: β-LG in PBS pH 3.5, 37 °C, aptamer 0.5 µM in TRIS with 0.1% BSA for immobilization, commercial protein, label: biotin, single-stranded DNA.

With “GCCTGTTGTGAGCCTCCTAACCTGGTGTGCAAGGTGGACTCTCTTTATCTTGTTGTCAGTCTCATCACCGCATGCTTATTCTTGTCTCCC [Apt 356]”, the binding result in data set [1] and in data set [2] was “no binding” throughout.
